PubChem BioAssay AID504444 (National Center for Advancing Translational Sciences (NCATS), 2011)
About 7,500 (2.1%) of roughly 360,000 compounds were called active. Inconclusive results, whose numbers are uncertain, are shown with a selection of clear calls. Calls follow the shape of the dose curve; as a rule, active = well fitted inhibition curve with a large enough effect; inconclusive = small, poorly fitted or top-dose-only effect, or effect the other way; inactive = flat fitted curve, though single readings scatter. Potencies beside an inconclusive call are fits to weak or partial responses and may not hold up.

Experiment: Nrf2 qHTS screen for inhibitors; also: nearly all actives have a fitted effect of over 60% in size
Details: A549 ARE-Fluc reporter, luciferase luminescence, 18-24 h; activity change, negative = inhibition: at 46 µM (top of the series)
How it was run: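 A549 ARE_Fluc cells (5000/well, 5% FBS OPTI-MEM) pre-incubated 2 h, then treated with compounds 18-24 h at 37C/5% CO2 in concentration-response. CellTiter-Fluor viability read first; BugLite luciferase luminescence after 15 min at room temperature gives Nrf2 activity.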
% is scaled to controls: 0 for no effect and ±100 for the full control effect; potency is read from the fitted curve at half-maximal effect.

Compound	activity change, negative = inhibition	Potency
Nc1nccc(SCc2ccc(Cl)cc2Cl)n1	inactive: -4.91%	
CCC1(C)Cc2c(sc3nnn(CC(=O)Nc4cccc5ccccc45)c(=O)c23)CO1 (stereo not drawn)		inconclusive: 18.4 µM [falling, partial curve]
COc1ccc(NC(=O)CCc2c(C)nn(-c3ccc(N4CCCC4)nn3)c2C)cc1Cl		inconclusive: 6.51 µM [falling, single point]
Cn1c2ccccc2c(=O)c2c(=O)n(Cc3ccco3)c(COc3ccccc3)nc21		inconclusive: 20.6 µM [activator, single point]
CCCCN(C(=O)c1ccc2c(c1)NC(=O)CS2)c1ccccc1		inconclusive: 32.6 µM [falling, partial curve, poor fit]
CCOC(=O)c1c(-c2ccc(C)cc2)csc1NC(=O)/C(C#N)=C/c1ccc(O)c(OC)c1		inconclusive: 29.1 µM [falling, single point]
COc1cc(C)ccc1OCC(=O)Nc1ccccc1N1CCOCC1	inactive: -6.82%	
CC(=O)/C(=N/Nc1ccc([N+](=O)[O-])cc1)N1CCCc2ccccc21		inconclusive: 14.6 µM [falling, partial curve]
Cc1ccc(NC(=O)CCn2cccn2)c(C)c1		inconclusive: 29.1 µM [activator, single point]
CCN(CC)S(=O)(=O)c1cccc(-n2c(O)c(C=Nc3ccccc3C(=O)O)c3ccccc3c2=O)c1		inconclusive: 0.366 µM [falling, full curve]
O=C(O)c1cccc(N/N=C/c2ccc(-c3ccccc3)cc2)c1		inconclusive: 1.03 µM [activator, full curve]
O=S(=O)(Cc1ccccc1)CS(=O)(=O)Cc1ccccc1	inactive: 0.046%	
COc1cc(/C=C/C(=O)Nc2cccc(S(=O)(=O)N3CCOCC3)c2)ccc1OCC#N		active: 14.6 µM
Cc1ccc(/C=C2/CNC/C(=C/c3ccc(C)cc3)C2=O)cc1		inconclusive: 16.4 µM [falling, single point]
Cc1ccc(C2(C)NC(=O)N(CC(=O)Nc3ccc(-c4nc5ccc(C)cc5s4)cc3)C2=O)cc1 (stereo not drawn)		inconclusive: 29.1 µM [falling, single point]
CSc1ccccc1C(=O)NCc1ccccc1		inconclusive: 7.31 µM [falling, full curve, poor fit]
CCc1ccc(CNC(=O)c2ccc3c(c2)c(C)c(C)n3Cc2ccccc2)cc1		inconclusive: 3.66 µM [falling, partial curve, poor fit]
O=C(NC1CCCCC1)c1ccc(CSc2nc3ccncc3n2Cc2cccc(F)c2)cc1		inconclusive: 20.6 µM [falling, partial curve, poor fit]

Five neighbouring compounds already listed, for reference:
Compound	activity change, negative = inhibition	Potency
Cc1ccc(NC(=O)CCn2cccn2)c(C)c1		inconclusive: 29.1 µM [activator, single point]
CCN(CC)S(=O)(=O)c1cccc(-n2c(O)c(C=Nc3ccccc3C(=O)O)c3ccccc3c2=O)c1		inconclusive: 0.366 µM [falling, full curve]
O=C(O)c1cccc(N/N=C/c2ccc(-c3ccccc3)cc2)c1		inconclusive: 1.03 µM [activator, full curve]
O=S(=O)(Cc1ccccc1)CS(=O)(=O)Cc1ccccc1	inactive: 0.046%	
COc1cc(/C=C/C(=O)Nc2cccc(S(=O)(=O)N3CCOCC3)c2)ccc1OCC#N		active: 14.6 µM
